In the supplement of paper PMC12819154, “High-throughput peptide-centric local stability assay extends protein–ligand identification to membrane proteins, tissues and bacteria” (Nature Structural & Molecular Biology, 2025):
The other results are listed elsewhere or left out. Most entries show no effect beyond the scatter of the controls.

Amino acid sequences for entries named in this document (tags omitted). A change or cut given only in a name is not applied to a line headed by its entry.
UniProt Q0VDF9: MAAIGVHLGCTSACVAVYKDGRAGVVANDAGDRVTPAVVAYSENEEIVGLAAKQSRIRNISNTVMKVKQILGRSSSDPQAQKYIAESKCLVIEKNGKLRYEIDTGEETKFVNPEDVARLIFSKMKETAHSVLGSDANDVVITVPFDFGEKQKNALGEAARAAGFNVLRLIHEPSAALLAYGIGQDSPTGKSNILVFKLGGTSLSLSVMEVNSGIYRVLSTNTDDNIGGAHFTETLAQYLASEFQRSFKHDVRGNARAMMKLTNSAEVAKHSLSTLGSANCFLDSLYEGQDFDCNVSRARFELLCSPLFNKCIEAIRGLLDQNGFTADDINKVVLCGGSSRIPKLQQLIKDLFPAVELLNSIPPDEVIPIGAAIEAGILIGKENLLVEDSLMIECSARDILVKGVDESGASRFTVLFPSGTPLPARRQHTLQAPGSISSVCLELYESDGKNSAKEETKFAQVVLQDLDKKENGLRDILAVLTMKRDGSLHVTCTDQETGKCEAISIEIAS
UniProt Q02447: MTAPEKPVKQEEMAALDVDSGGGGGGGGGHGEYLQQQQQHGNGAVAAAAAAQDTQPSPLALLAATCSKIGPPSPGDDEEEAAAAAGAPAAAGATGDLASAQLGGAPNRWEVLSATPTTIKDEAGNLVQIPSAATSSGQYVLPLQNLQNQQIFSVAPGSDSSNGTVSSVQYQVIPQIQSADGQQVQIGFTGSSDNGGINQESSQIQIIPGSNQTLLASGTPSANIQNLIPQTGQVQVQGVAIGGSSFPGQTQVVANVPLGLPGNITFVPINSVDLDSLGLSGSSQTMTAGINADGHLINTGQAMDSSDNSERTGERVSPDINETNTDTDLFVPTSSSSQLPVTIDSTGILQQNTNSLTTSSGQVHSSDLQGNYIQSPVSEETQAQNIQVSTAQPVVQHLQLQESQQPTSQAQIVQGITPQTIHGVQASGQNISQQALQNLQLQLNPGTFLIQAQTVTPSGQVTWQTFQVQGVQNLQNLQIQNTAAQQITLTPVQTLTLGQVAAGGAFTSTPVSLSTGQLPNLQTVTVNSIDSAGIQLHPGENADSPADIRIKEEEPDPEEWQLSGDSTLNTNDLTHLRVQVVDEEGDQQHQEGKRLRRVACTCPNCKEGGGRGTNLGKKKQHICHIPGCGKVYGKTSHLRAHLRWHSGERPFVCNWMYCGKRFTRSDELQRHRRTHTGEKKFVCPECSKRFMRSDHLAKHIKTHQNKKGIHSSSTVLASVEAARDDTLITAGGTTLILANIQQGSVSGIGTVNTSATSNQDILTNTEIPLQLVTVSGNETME
UniProt Q01658: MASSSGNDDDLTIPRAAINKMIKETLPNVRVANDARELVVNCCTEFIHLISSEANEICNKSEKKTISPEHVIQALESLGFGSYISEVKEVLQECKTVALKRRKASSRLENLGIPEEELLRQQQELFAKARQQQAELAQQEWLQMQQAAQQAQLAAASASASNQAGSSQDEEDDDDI
UniProt Q04864: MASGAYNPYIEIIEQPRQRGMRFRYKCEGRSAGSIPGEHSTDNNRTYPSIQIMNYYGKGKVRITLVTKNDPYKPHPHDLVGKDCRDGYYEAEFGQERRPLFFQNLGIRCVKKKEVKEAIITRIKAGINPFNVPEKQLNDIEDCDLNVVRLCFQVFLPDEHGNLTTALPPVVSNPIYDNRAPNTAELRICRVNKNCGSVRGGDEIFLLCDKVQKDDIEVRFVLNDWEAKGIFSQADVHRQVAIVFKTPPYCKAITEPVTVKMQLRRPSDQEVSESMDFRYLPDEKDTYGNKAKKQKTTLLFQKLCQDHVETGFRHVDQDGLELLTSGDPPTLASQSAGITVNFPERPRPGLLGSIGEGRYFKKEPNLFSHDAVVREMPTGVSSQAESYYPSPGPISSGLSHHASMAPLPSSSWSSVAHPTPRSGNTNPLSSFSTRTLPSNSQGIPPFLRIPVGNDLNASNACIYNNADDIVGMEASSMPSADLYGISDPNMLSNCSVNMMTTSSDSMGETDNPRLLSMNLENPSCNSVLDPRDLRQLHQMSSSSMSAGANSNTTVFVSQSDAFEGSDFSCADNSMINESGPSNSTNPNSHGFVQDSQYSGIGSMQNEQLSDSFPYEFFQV
UniProt Q06210: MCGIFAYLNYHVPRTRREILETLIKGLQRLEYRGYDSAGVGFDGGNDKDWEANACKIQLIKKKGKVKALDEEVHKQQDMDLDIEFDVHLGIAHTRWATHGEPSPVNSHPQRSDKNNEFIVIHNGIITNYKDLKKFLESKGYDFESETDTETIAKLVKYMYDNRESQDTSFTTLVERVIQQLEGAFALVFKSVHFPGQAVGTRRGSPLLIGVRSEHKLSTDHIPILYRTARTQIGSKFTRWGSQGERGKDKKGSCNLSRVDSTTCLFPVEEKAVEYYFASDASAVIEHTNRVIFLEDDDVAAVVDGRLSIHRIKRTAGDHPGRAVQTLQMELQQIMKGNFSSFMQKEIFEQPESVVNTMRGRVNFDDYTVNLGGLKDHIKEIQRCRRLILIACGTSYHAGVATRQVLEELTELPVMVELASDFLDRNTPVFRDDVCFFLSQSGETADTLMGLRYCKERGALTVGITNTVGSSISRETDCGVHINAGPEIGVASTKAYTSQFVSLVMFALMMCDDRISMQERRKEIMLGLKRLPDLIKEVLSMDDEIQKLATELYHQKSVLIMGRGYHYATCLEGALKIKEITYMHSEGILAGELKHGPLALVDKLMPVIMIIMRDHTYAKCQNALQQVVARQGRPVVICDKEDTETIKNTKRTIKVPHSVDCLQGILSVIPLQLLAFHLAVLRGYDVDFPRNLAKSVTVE
UniProt P83369: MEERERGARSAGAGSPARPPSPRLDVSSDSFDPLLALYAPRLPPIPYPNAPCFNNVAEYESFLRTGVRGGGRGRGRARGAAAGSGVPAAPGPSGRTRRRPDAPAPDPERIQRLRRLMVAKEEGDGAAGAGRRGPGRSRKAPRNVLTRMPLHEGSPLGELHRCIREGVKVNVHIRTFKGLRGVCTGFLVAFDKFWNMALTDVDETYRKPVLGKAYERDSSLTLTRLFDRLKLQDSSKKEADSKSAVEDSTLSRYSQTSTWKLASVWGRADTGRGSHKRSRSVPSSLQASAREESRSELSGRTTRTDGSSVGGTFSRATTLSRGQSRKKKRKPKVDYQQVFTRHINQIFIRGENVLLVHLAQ
UniProt Q05513: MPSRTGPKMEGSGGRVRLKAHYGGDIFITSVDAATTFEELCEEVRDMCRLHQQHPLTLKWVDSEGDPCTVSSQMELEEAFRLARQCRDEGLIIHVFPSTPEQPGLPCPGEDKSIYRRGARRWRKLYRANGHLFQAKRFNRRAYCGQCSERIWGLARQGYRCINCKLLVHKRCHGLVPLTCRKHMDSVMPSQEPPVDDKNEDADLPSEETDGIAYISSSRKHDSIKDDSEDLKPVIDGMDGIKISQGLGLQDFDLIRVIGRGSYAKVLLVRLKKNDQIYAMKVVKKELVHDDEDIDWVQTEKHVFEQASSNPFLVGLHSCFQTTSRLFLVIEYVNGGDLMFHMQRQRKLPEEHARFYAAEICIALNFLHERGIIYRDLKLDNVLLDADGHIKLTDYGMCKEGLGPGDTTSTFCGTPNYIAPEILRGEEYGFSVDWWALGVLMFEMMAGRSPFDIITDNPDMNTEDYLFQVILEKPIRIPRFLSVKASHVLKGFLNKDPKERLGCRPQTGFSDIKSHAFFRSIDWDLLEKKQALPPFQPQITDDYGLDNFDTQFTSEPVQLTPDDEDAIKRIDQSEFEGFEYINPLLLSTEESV
UniProt Q08357: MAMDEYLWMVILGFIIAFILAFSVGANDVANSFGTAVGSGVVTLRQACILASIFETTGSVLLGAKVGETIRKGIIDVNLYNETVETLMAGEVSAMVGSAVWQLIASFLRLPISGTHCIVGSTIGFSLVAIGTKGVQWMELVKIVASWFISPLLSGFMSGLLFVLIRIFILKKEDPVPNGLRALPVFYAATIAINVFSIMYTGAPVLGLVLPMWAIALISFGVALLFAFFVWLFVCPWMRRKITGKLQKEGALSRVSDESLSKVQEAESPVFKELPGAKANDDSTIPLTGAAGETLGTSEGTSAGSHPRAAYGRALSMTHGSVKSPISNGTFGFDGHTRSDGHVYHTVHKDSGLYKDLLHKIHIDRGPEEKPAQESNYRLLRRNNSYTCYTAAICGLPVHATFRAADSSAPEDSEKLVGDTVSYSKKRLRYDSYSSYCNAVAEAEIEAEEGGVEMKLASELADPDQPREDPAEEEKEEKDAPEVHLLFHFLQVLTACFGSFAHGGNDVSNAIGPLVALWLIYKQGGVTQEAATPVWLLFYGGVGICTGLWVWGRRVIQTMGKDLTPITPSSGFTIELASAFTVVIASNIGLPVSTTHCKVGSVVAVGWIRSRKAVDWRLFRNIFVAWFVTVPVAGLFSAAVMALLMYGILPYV
UniProt Q08AN1: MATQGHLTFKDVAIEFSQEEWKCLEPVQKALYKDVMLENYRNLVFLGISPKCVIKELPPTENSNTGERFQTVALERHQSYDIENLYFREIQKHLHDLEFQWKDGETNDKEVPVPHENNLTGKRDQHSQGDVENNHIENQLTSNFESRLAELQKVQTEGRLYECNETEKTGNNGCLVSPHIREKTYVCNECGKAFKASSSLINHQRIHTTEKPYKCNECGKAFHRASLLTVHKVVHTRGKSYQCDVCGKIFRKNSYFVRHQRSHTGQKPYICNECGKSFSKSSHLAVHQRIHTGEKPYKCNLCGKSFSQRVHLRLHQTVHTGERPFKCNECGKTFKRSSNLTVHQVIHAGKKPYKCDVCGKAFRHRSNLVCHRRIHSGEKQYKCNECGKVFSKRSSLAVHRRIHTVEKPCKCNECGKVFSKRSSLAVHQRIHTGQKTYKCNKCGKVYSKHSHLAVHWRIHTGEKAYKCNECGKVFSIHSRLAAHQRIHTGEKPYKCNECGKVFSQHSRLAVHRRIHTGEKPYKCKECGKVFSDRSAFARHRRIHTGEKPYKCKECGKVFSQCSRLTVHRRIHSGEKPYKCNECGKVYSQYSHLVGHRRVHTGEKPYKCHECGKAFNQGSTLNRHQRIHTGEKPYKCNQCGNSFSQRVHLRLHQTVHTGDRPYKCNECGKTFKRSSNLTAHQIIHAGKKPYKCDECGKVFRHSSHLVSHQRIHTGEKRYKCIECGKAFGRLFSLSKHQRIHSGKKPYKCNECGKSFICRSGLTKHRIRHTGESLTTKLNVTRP
UniProt Q01650: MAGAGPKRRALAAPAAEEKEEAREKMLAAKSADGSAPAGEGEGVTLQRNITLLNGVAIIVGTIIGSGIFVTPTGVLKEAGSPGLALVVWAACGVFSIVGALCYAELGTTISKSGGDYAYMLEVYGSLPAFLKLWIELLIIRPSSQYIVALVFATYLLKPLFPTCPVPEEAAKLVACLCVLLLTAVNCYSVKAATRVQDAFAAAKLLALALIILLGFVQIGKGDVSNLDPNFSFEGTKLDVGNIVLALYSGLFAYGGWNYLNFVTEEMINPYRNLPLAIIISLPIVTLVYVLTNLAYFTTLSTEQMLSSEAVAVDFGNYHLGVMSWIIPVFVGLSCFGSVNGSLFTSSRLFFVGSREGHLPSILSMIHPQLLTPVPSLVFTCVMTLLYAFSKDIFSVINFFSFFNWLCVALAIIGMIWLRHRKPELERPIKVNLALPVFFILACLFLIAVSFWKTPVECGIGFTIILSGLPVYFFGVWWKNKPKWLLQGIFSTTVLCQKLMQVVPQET
UniProt Q01850: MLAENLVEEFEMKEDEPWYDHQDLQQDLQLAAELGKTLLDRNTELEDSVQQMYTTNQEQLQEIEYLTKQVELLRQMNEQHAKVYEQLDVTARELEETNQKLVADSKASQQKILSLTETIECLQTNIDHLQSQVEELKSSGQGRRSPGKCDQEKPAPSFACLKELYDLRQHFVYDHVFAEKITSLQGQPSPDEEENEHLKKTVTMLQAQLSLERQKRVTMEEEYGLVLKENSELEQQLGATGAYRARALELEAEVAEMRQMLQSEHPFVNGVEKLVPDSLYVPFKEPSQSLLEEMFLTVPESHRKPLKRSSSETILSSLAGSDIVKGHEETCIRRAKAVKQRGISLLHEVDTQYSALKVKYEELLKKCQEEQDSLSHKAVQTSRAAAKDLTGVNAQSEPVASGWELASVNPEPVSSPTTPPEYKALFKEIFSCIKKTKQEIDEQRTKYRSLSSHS
UniProt Q12974: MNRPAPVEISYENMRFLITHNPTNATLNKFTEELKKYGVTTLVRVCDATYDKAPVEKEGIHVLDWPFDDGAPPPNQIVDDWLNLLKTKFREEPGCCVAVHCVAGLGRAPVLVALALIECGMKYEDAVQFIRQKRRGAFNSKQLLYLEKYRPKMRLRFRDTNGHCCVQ
UniProt Q00059: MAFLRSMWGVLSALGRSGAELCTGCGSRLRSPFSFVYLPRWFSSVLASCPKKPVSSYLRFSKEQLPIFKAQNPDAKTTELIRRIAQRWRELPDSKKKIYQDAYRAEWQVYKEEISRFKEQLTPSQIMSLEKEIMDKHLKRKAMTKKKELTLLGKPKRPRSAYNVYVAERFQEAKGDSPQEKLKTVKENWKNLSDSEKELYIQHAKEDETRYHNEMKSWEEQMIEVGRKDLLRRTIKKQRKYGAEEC

The targets below were run with Cc1nc(Nc2ncc(C(=O)Nc3c(C)cccc3Cl)s2)cc(N2CCN(CCO)CC2)n1 [dasatinib] (assay: log2 fold change of tryptic peptide abundance, ligand vs vehicle (limited proteolysis) (log2 ratio); higher = more trypsin-susceptible (destabilized)). Conditions: ligand concentration: 5 uM; sample: K562 cleared lysate.

| Target | log2 fold change |
| --- | --- |
| HSPA14 (peptide sequence: CLVIEKNGK, peptide start residue: 89) (UniProt Q0VDF9) | 0.172 |
| UniProt P98077 (peptide sequence: HLLLVDPEGVVR, peptide start residue: 532) | 0.0977 |
| UniProt Q07955 (peptide sequence: IYVGNLPPDIR, peptide start residue: 18) | 0.0866 |
| SP3 (peptide sequence: RVACTCPNCK, peptide start residue: 597) (UniProt Q02447) | -0.506 |
| MLLT1 (peptide sequence: EPPPPQKPPPPNSK, peptide start residue: 456) (UniProt Q03111) | 0.963 |
| DR1 (peptide sequence: EVLQECKTVALK, peptide start residue: 89) (UniProt Q01658) | -0.292 |
| REL (peptide sequence: IKAGINPFNVPEK, peptide start residue: 123) (UniProt Q04864) | -0.442 |
| ICA1 (peptide sequence: DLQASLQEPAK, peptide start residue: 437) (UniProt Q05084) | 0.312 |
| UniProt P84103 (peptide sequence: VYVGNLGNNGNKTELER, peptide start residue: 12) | 0.0509 |
| XIAP (peptide sequence: SFQNWPDYAHLTPR, peptide start residue: 169) (UniProt P98170) | 0.402 |
| LCP2 (peptide sequence: SLAPFDREPFTLGK, peptide start residue: 246) (UniProt Q13094) | -0.0967 |
| GFPT1 (peptide sequence: DKKGSCNLSR, peptide start residue: 249) (UniProt Q06210) | 1.05 |
| ALDH6A1 (peptide sequence: WLPELVEHAK, peptide start residue: 332) (UniProt Q02252) | -0.311 |
| CDC20 (peptide sequence: LKVLYSQK, peptide start residue: 148) (UniProt Q12834) | -0.236 |
| ASPH (peptide sequence: GKIEEAVNAFK, peptide start residue: 355) (UniProt Q12797) | 0.268 |
| UniProt P84090 (peptide sequence: MYEEHLK, peptide start residue: 35) | 0.185 |
| UniProt Q0PNE2 (peptide sequence: EANAGNLKPLFEFVR, peptide start residue: 109) | 0.162 |
| FANCC (peptide sequence: ENHLNGFNTQR, peptide start residue: 163) (UniProt Q00597) | -0.0931 |
| LSM11 (peptide sequence: LMVAKEEGDGAAGAGR, peptide start residue: 116) (UniProt P83369) | 0.258 |

As a working copy, part of the list above:

| Target | log2 fold change |
| --- | --- |
| CDC20 (peptide sequence: LKVLYSQK, peptide start residue: 148) (UniProt Q12834) | -0.236 |
| ASPH (peptide sequence: GKIEEAVNAFK, peptide start residue: 355) (UniProt Q12797) | 0.268 |
| UniProt P84090 (peptide sequence: MYEEHLK, peptide start residue: 35) | 0.185 |

Further records follow:

| Target | log2 fold change |
| --- | --- |
| DMWD (peptide sequence: GGSGGSGSGGEKPSGPVPR, peptide start residue: 552) (UniProt Q09019) | 0.214 |
| UniProt Q05513 (peptide sequence: LTDYGMCK, peptide start residue: 394) | -0.122 |
| SLC20A2 (peptide sequence: AADSSAPEDSEK, peptide start residue: 404) (UniProt Q08357) | 0.624 |
| ZNF616 (peptide sequence: ATQGHLTFK, peptide start residue: 2) (UniProt Q08AN1) | 0.36 |
| GOLGA2 (peptide sequence: AQLEAHLGQVMESVR, peptide start residue: 373) (UniProt Q08379) | 0.329 |
| CDKL1 (peptide sequence: LCDFGFAR, peptide start residue: 693) (UniProt Q00532) | -0.058 |
| COG7 (peptide sequence: TLQHIVTLLK, peptide start residue: 732) (UniProt P83436) | 0.501 |
| SLC7A5 (peptide sequence: PELERPIK, peptide start residue: 423) (UniProt Q01650) | -0.482 |
| CDR2 (peptide sequence: QHFVYDHVFAEK, peptide start residue: 169) (UniProt Q01850) | -0.31 |
| FOXO1 (peptide sequence: DKGDSNSSAGWK, peptide start residue: 196) (UniProt Q12778) | -0.135 |
| HMGXB3 (peptide sequence: ICPSCGVNLAK, peptide start residue: 641) (UniProt Q12766) | 0.285 |
| CAP1 (peptide sequence: EYKDVDKK, peptide start residue: 171) (UniProt Q01518) | 0.451 |
| RUNX1 (peptide sequence: QKLDDQTKPGSLSFSER, peptide start residue: 181) (UniProt Q01196) | 0.145 |
| UniProt Q12974 (peptide sequence: VCDATYDKAPVEK, peptide start residue: 45) | -0.0934 |
| H3F3A (peptide sequence: SAPSTGGVKKPHR, peptide start residue: 29) (UniProt P84243) | -0.0889 |
| IFRD2 (peptide sequence: QGALESLR, peptide start residue: 157) (UniProt Q12894) | -0.112 |
| PITPNA (peptide sequence: TVITNEYMKEDFLIK, peptide start residue: 96) (UniProt Q00169) | 0.345 |
| TFAM (peptide sequence: FKEQLTPSQIMSLEKEIMDK, peptide start residue: 117) (UniProt Q00059) | -0.146 |
